Test results from patent US20230265162A1.
No constants are given. Whether binding was seen depends on the method and setting. Some binding calls cover weakened binding; strength is not graded here.

Molecular target: T1, growth differentiation factor 11 (GDF11) (UniProt O95390)
T1 sequence (looked up): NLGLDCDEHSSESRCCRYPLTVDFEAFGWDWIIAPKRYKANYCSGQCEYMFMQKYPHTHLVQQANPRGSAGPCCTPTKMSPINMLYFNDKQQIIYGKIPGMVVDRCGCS
Experiment: SPR, Biacore 3000; receptor captured by anti-mouse antibody on CM4/CM5 chip, ligand in flow

B1: ActRIIA/b+ variant (SEQ ID NO: 149) (receptor, not shown: a dimerising Fc or GST)
chain: GAILGRSETQECLFYNANWELERTNQTGVERCEGEKDKRLHCYATWRNISGSIEIVAKGCWLDDFNCYDRTDCVETEENPQVYFCCCEGNMCNEKFSYFPEMEVTQPTS
  binding: binds
